# In PubChem BioAssay AID1362 (SRMLSC, 2008):
# The other results are listed elsewhere or left out.
# Assay: growth inhibition of WT strain, primary screen, mitochondrial fusion inhibitor project, WT and mutant strains, chemical genetic (AID 1362); further: tested in S. cerevisiae
# Conditions: mitochondrial fusion phenotypic screen, at 10 µM
row,Structure (SMILES),inhibition
1,Cc1c(NP(C)(=O)Oc2ccc(C(C)C)cc2)c(=O)n(-c2ccccc2)n1C (stereo unspecified),-5.26%
2,O=[N+]([O-])c1cc([N+](=O)[O-])c(Nc2ccccn2)c([N+](=O)[O-])c1,21.5%
3,CC(C)CC(=O)NC(Sc1ccc(Cl)cc1)C(Cl)(Cl)Cl (stereo unspecified),28.3%
4,Oc1ccccc1CNc1ccccn1,4.6%
5,O=C(NC(Sc1ccncn1)C(Cl)(Cl)Cl)c1ccccc1 (stereo unspecified),-16.3%
6,Cc1c2non([O-])c-2c(C)[n+](=O)[n+]1[O-],-0.88%
7,CP(=O)(Nc1ccccn1)Oc1ccccc1 (stereo unspecified),-20.7%
8,COc1ccccc1OP(C)(=O)Nc1ccc(C)cc1C (stereo unspecified),13.4%
9,CCc1ccc(OP(C)(=O)O)cc1,6.84%
10,NC(=O)c1cc([N+](=O)[O-])cc([N+](=O)[O-])c1N,-9.56%
11,Cc1ccc(N/C(=N/P(=O)(N2CCOCC2)N2CCOCC2)N2CCOCC2)cc1,-2.76%
12,COc1ccccc1OP(=O)(Nc1ccc(C)cn1)Oc1ccccc1OC,1.4%
13,COc1ccc(OP(C)(=O)Nc2ccccn2)cc1 (stereo unspecified),-9.85%
14,CN1CCCC(OC(=O)C(c2ccccc2)c2ccccc2)C1 (stereo unspecified),-14.1%
15,CN(C)CCOC(=O)C(O)(c1ccccc1)C1CCCC1 (stereo unspecified),-3.92%
16,Clc1ccc(Cl)c(NC2=NCC(CBr)S2)c1 (stereo unspecified),16.9%
17,Cc1nc2ccc3ccccc3c2o1.O=[N+]([O-])c1cc([N+](=O)[O-])c(O)c([N+](=O)[O-])c1,2.02%
18,CCN(N=Nc1nonc1N)c1nonc1N,11.7%
19,CP(=O)(Nc1ccc(Cl)cc1Cl)Oc1ccccc1 (stereo unspecified),12.9%
20,CP(=O)(OCCOc1ccccc1)OCCOc1ccccc1,-0.15%
21,Cc1cc(C)cc(OP(C)(=O)Nc2cccc(C(F)(F)F)c2)c1 (stereo unspecified),-2.25%
22,Cc1cc(SC(NC(=O)c2ccc(F)cc2)C(Cl)(Cl)Cl)ncn1 (stereo unspecified),-2.39%
23,CCOP(=O)(Nc1ccccc1)OCC,15.7%
24,COc1ccccc1OP(C)(=O)Nc1ccc(C)c(C)c1 (stereo unspecified),-21.8%
25,COc1ccc(OP(C)(=O)Nc2ccccc2Br)cc1 (stereo unspecified),7.94%
26,O=[N+]([O-])c1ncn(CCn2ncnc2[N+](=O)[O-])n1,19.8%

row,Structure (SMILES),inhibition
1,CCOC(=O)c1ccc(NP(C)(=O)Oc2ccc(Cl)cc2)cc1 (stereo unspecified),-4.74%
2,CP(=O)(OC12CC3CC(CC(C3)C1)C2)OC12CC3CC(CC(C3)C1)C2,12.2%
3,COc1ccccc1OP(C)(=O)Nc1ccccc1Br (stereo unspecified),-9.5%
4,CCN(/C(=N/P(=O)(N1CCOCC1)N1CCOCC1)N1CCOCC1)c1ccc(OC)cc1,-2.68%
5,CP(=O)(Nc1ccc(Cl)cc1)Oc1ccc(F)cc1 (stereo unspecified),-1.81%
6,CC(C)=N/N=C(\N)N[N+](=O)[O-],-7.73%
7,CN(C)C(=O)c1c([N+](=O)[O-])cc([N+](=O)[O-])cc1[N+](=O)[O-],10.7%
8,CN(C)C(=O)OCCc1n(C)cc[n+]1C,-6.26%
9,CC1CCN(C(=O)Oc2c(Cl)cc(Cl)c3cccnc23)CC1,-14.1%
10,CCN(CC)CC(O)COC(=O)C(O)(c1ccccc1)C1CCCCC1 (stereo unspecified),6.31%
11,COc1ccc(C2=NCC(CBr)S2)cc1 (stereo unspecified),0.32%
12,COc1ccc(OP(C)(=O)Nc2ccc(Br)cc2)cc1 (stereo unspecified),-3.36%
13,CC(=O)N1C2C3N(C(C)=O)C1C1N(C(C)=O)C(C(N1C(C)=O)N3C(C)=O)N2C(C)=O,13.5%
14,O=[N+]([O-])c1cccc2n[nH]nc12,7.37%
15,Cc1ccc(NP(=O)(Oc2ccccc2)Oc2ccccc2)nc1,6.08%
16,CP(=O)(Oc1ccccc1)N1CCOC1=O (stereo unspecified),2.39%
17,CCc1ccc(OP(C)(=O)Nc2cccnc2)cc1 (stereo unspecified),21.9%
18,O=[N+]([O-])c1cc([N+](=O)[O-])c(CCNc2ccccc2)c([N+](=O)[O-])c1,33.7%
19,CCc1nc2c(n1)c1c(non1O)c1c2no[n+]1[O-],17.9%
20,CP(=O)(Nc1ccc2c(c1)OCCO2)Oc1ccccc1 (stereo unspecified),-6.23%
21,Cc1ccccc1NP(C)(=O)Nc1ccccc1C,-7.23%
22,O=P(Nc1nccs1)(c1ccccc1)c1ccccc1,-3.48%
23,CC(C)C(=O)NC(Sc1ccccc1)C(Cl)(Cl)Cl (stereo unspecified),7.91%
24,CCOP(C)(=S)SCC(=O)NC(C)(CC)C(=O)O (stereo unspecified),16.1%
25,c1nnnn1CCn1cnnn1,-6.03%
26,CC(=O)NC(SC(=S)N(C)C)C(Cl)(Cl)Cl (stereo unspecified),-5.75%

row,Structure (SMILES),inhibition
1,O=[N+]([O-])c1cc([N+](=O)[O-])c(NCC2CCS(=O)(=O)C2)c([N+](=O)[O-])c1 (stereo unspecified),-0.95%
2,C(Cc1nn[nH]n1)Cc1nn[nH]n1,-1.81%
3,O=C(OC1CN2CCC1CC2)c1cccc(Cl)c1 (stereo unspecified),2.91%
4,COc1ccc(OP(C)(=O)Nc2cccc(Br)c2)cc1 (stereo unspecified),1.78%
5,O=P(Nc1ccccn1)(c1ccc(Br)cc1)c1ccc(Br)cc1,-2.23%
6,CN(C)CCOC(=O)C(O)(c1ccccc1)C1CCCCC1 (stereo unspecified),8.63%
7,COc1ccc(NP(C)(=O)Oc2ccccc2OC)cc1 (stereo unspecified),-3.46%
8,COC(=O)c1cc2c(s1)N=C(c1ccccc1)N(C)P2(=O)N1CCOCC1 (stereo unspecified),7.16%
9,CC(=O)NC(SC(=S)N(CC(C)C)CC(C)C)C(Cl)(Cl)Cl (stereo unspecified),61.8%
10,Cc1ccc(OP(=O)(Nc2ccccn2)Oc2ccc(C)cc2)cc1,16.1%
11,CCC(=O)N1C2C3N(C(=O)CC)C1C1N(C(=O)CC)C(C(N1C(=O)CC)N3C(=O)CC)N2C(=O)CC,-3.21%
12,CCN(CC)CCCOC(=O)C(O)(c1ccccc1)C1CCCCC1 (stereo unspecified),5.79%
13,CP(=O)(Nc1ccccc1)Oc1ccc(F)cc1 (stereo unspecified),9.81%
14,O=c1c2cc([N+](=O)[O-])ccc2[nH]c2c([N+](=O)[O-])cc([N+](=O)[O-])cc12,98.2%
15,O=C(NC1CCS(=O)(=O)C1)NP(=S)(Oc1ccccc1)Oc1ccccc1 (stereo unspecified),-12.5%
16,CCNC(=S)/N=C(\N)N[N+](=O)[O-],4.16%
17,c1ccc(-c2nn[nH]n2)c(-c2nn[nH]n2)c1,-7.33%
18,CCOC(=O)NC(Sc1ccccc1)C(Cl)(Cl)Cl (stereo unspecified),28%
19,CCOC(=O)c1ccc(NP(C)(=O)Oc2ccc(F)cc2)cc1 (stereo unspecified),-12.3%
20,COc1ccc(OP(C)(=O)Nc2ccc(SC(F)(F)F)cc2)cc1 (stereo unspecified),0.46%
21,O=C(OCCN1CCN(CCOCc2ccccc2)CC1)C(O)(c1ccccc1)c1ccccc1,-12.5%
22,CC(=O)Nc1ccc(Oc2c([N+](=O)[O-])cc([N+](=O)[O-])cc2[N+](=O)[O-])cc1,3.74%
23,O=P1(Nc2nc3ccc(Cl)cc3s2)COc2ccccc2O1 (stereo unspecified),-2.4%
24,CCOc1ccc(C2=NCC(CBr)S2)cc1 (stereo unspecified),6.14%
